Data reported in PubChem BioAssay AID2685 (National Center for Advancing Translational Sciences (NCATS), 2010).
Hit rate of the full screen: of about 320,000 compounds, about 2,100 (0.66%) were called active. The inconclusive results got no clear call from the source; some entries with a clear call stand among them for comparison. The call rests on the fitted dose curve; in most records, active means well fitted inhibition curve with a large enough effect in the signal ratio, with a control signal flat (not every such curve was filed as active); inconclusive means small, poorly fitted or top-dose-only effect, or effect the other way, or a change in a side signal; inactive means flat fitted curve, though single readings scatter; the % refers to the signal ratio. A potency beside an inconclusive call is a rough fit, not a confirmed value.

Experiment: qHTS Assay for Lipid Storage Modulators in Drosophila S3 Cells
Conditions: BODIPY lipid droplet fluorescence, 18-24 h, cells fed with added oleic acid; lipid storage change, negative = inhibition: at 46.1 µM (top of the series) unless noted
Procedure, shortened: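 Laser-scanning cytometry quantifies lipid droplet accumulation (500–530 nm total intensity; droplet/cell object ratio) in oleic acid-fed (400 uM added) Drosophila S3 cells treated with a concentration series. 20 uM Triacsin C defined 100% inhibition.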
On the % scale 0 is the no-effect control and ±100 the full control effect; potency means the concentration at half of the fitted maximal effect.

| Structure (SMILES) | Potency | lipid storage change, negative = inhibition |
| --- | --- | --- |
| Cc1cc(-c2ccc(F)cc2)nc2cc(C(N)=O)nn12 | inconclusive: 2.31 µM [activator, partial curve, poor fit] | – |
| CCCCOC(=O)Nc1ccc(S(=O)(=O)Nn2cnnc2)cc1 | – | inconclusive: -83.5% |
| CC(C)C(=O)N1N=C2CCCCC2C1(O)C(F)(F)F (centres undefined) | – | inconclusive: 6.9% |
| COc1ccc(S(=O)(=O)N(CC(=O)NCC2CCCO2)C2CCCCC2)cc1OC (centres undefined) | – | inconclusive: 35.1% |
| O=C(CCCn1c(=S)[nH]c2ccccc2c1=O)NCc1ccco1 | – | inconclusive: -56.2% |
| O=C(COC(=O)C12CC3CC(CC(O)(C3)C1)C2)Nc1ccc(OC(F)F)cc1 | – | inconclusive |
| CCOC(=O)N1CCN(C(=O)COc2ccccc2[N+](=O)[O-])CC1 | – | inconclusive: 44.5% |
| COc1cccc(-n2cc(CNC(=O)C3CCC(=O)N(C4CC4)C3)cn2)c1 (centres undefined) | – | inconclusive: 49.2% |
| O=C(NC1CCN(Cc2ccccc2)CC1)c1cccc(OC(F)F)c1 | – | inconclusive: -1.8% |
| CCOc1ccccc1NC(=O)/C(C#N)=C/c1c(C)nn(-c2ccc(F)cc2)c1Cl | inconclusive: 9.2 µM [activator, partial curve] | – |
| CCc1ccc(NC(=S)N2CCNC(=O)C2CC(=O)OC)cc1 (centres undefined) | inconclusive: 0.13 µM [falling, full curve, poor fit] | – |
| COC(=O)N(C)c1ccccc1C(=O)N1CCOCC1 | – | inconclusive: -9.37% |
| COc1ccc(NC(=O)COc2coc(CN3CCN(c4ccccc4)CC3)cc2=O)cc1 | – | inconclusive: -10.2% |
| CCc1ccccc1NC(=O)Cn1ccn(-c2ccc(OC)cc2)c(=O)c1=O | inconclusive: 1.64 µM [activator, full curve] | – |
| O=[N+]([O-])c1cccc(-c2nc(-c3ccccn3)no2)c1 | – | inconclusive: 18.6% |
| CCCn1c2ccc(F)cc2c2nnc(NN)nc21 | – | inconclusive: 38% |
| CC(=O)c1c(C)c2c(n1CCN(C)C)CCCC2 | – | inconclusive: -2.31% |
| O=C(/C=C/c1ccc(Cl)c(C(F)(F)F)c1)N1CCN(c2ccccn2)CC1 | – | inconclusive: 46.5% |
| O=C(CCc1nc2ccccc2[nH]1)Nc1ccccc1 | – | inconclusive: 6.27% |
| CC1CN(C(c2ccco2)c2sc3ncnn3c2O)CC(C)O1 (centres undefined) | – | inconclusive: -37% |
| O=C(/C=C/c1ccc(Cl)cc1Cl)Nc1ccncc1 | inconclusive: 29.1 µM [rising, single point] | – |
| COc1ccc(C)cc1NC(=O)CSc1nnc(-c2cc(C)[nH]n2)n1N | inconclusive: 25.9 µM [activator, single point] | – |
| CS(=O)(=O)N(CC(=O)Nc1ccc(S(=O)(=O)N2CCOCC2)cc1)c1cccc(F)c1 | inconclusive: 1.64 µM [falling, partial curve, poor fit] | – |
| O=C(c1ccc(Br)o1)N1CCN(Cc2ccc3c(c2)OCO3)CC1 | – | inconclusive: 4% |
| COc1ccc(-c2oc3ncn(Cc4ccco4)c(=N)c3c2-c2ccc(OC)cc2)cc1 | – | inconclusive: -44.7% |

| Structure (SMILES) | Potency | lipid storage change, negative = inhibition |
| --- | --- | --- |
| Cc1ccc(N2C(=O)/C(=C/c3cccnc3)SC2=S)cc1 | – | inconclusive: 7.23% |
| CN(c1cccc(Cl)c1)S(=O)(=O)c1cccc(C(=O)Nc2ccc3c(c2)CCC3)c1 | inconclusive: 23.1 µM [falling, single point] | – |
| O=C(c1cc(-c2ccccc2Cl)on1)N1CCCC1 | – | inconclusive: 41.3% |
| O=C(COC(=O)/C=C/c1cccc(F)c1)Nc1ccc(Cl)cn1 | – | inconclusive: 8.66% |
| Cc1ccc(C(=O)C[n+]2ccc(-c3nnc4n3CCC4)cc2)cc1 | – | inconclusive: 20.3% |
| CC1CCCCC12NC(=O)N(CC(=O)OCC(=O)NCc1ccc(F)cc1)C2=O (centres undefined) | inconclusive: 2.06 µM [activator, single point] | – |
| CC1=C(C(=O)Nc2ccc(C)cc2)C(c2ccc(C)o2)C2=C(CC(C)(C)CC2=O)N1 (centres undefined) | inconclusive: 3.26 µM [falling, single point] | – |
| CCCNC(=O)c1cc(SC)ccc1Cl | – | inconclusive: -67.3% |
| CC1CCCC(NC(=O)CN2CCN(S(=O)(=O)c3cccs3)CC2)C1C (centres undefined) | – | inconclusive: 1.28% |
| CCN(CC)S(=O)(=O)c1ccc(NS(=O)(=O)c2ccc3oc(=O)[nH]c3c2)cc1 | – | inconclusive: -15.4% |
| COc1ccc(C)cc1NC(=O)C1CCCN(S(=O)(=O)c2ccc3c(c2)CCCN3C(C)=O)C1 (centres undefined) | inconclusive: 0.164 µM [falling, full curve, poor fit] | – |
| CC1CCCN(C(=O)C2CC(=O)N(c3ccc(Cl)cc3)C2)C1 (centres undefined) | inconclusive: 6.51 µM [falling, single point] | – |
| CCOc1ccc(OCC(=O)OCC(=O)Nc2ccc3[nH]c(=O)[nH]c3c2)cc1 | – | inconclusive: -3.8% |
| COC(=O)c1sc(NC(=O)C2c3ccccc3Oc3ccccc32)c(C(=O)OC)c1C | – | inactive |
| Cc1nn(CC(=O)NCC(C)c2ccccc2)c(=O)c2cc(-c3ccccc3)nn12 (centres undefined) | inconclusive: 2.31 µM [activator, full curve] | – |
| Cc1cc(CNC(=O)c2ccc3oc(C(C)C)nc3c2)nn1C | inconclusive: 20.6 µM [activator, single point] | – |
| Cc1cccc(OCC(=O)Nc2ccc(N3CCN(C(=O)c4ccccc4)CC3)cc2)c1C | inconclusive: 0.58 µM [activator, single point] | – |
| COC(=O)c1cc(C(=O)Nc2nc3ccccc3[nH]2)cc([N+](=O)[O-])c1 | – | inconclusive: -74.3% |
| Cc1ccc(C(=O)C[n+]2ccc(Cc3ccccc3)cc2)cc1 | – | inconclusive: 8.48% |
| CCOC(=O)c1cc2sccc2n1CCCN1C(=O)c2ccccc2C1=O | – | inconclusive: 17.8% |
| CC(=O)Nc1ccc(NC(=S)NC(=O)c2ccc([N+](=O)[O-])cc2)cc1 | – | inconclusive: 5.74% |
| CCCCC1S/C(=N/N=C/c2cccs2)NC1=O (centres undefined) | – | inconclusive: 54.5% |
| Nc1c(C=C2C=CC(=O)C=C2)c(=O)nc2sc(CC(=O)N3CCOCC3)nn12 | inconclusive: 23.1 µM [activator, single point] | – |
| CC(=O)Nc1ccc2c(CSc3nncs3)cc(=O)oc2c1 | – | inconclusive: 26.2% |
| CC(C)n1nc(C(=O)Oc2cc(Cl)ccc2Cl)c2ccccc2c1=O | inconclusive: 0.0082 µM [falling, full curve, poor fit] | – |

In the list so far, two have a CF3 group:

| Structure (SMILES) | Potency | lipid storage change, negative = inhibition |
| --- | --- | --- |
| CC(C)C(=O)N1N=C2CCCCC2C1(O)C(F)(F)F (centres undefined) | – | inconclusive: 6.9% |
| O=C(/C=C/c1ccc(Cl)c(C(F)(F)F)c1)N1CCN(c2ccccn2)CC1 | – | inconclusive: 46.5% |

Following part

| Structure (SMILES) | Potency | lipid storage change, negative = inhibition |
| --- | --- | --- |
| O=C(COc1ccccc1[N+](=O)[O-])N(Cc1ccco1)C1CCS(=O)(=O)C1 (centres undefined) | – | inconclusive: 33.1% |
| CCCn1c(=O)c2ccccc2n2c(Sc3nnnn3-c3ccccc3)nnc12 | inconclusive: 4.61 µM [falling, full curve, poor fit] | – |
| Cc1ccc(S(=O)(=O)N2CCC(C(=O)Nc3nnc(-c4ccco4)s3)CC2)cc1 | – | inconclusive: 79.6% |
| CC1(C)CC(NC(=O)c2ccc(Br)o2)CC(C)(C)N1 | inconclusive: 0.651 µM [activator, single point] | – |
| Cc1onc(-c2ccccc2)c1CNS(=O)(=O)c1cccc(Br)c1 | – | inactive |
| Cc1cccc(NC(=O)CSc2nnc(NC(=O)CN3CCOCC3)s2)c1 | inconclusive: 0.58 µM [falling, single point] | – |
| CCc1cccc(CC)c1NC(=S)NCc1ccc2[nH]c(C)cc2c1 | inconclusive: 29.1 µM [falling, single point] | – |
| CCC(=O)N1CCc2cc(S(=O)(=O)NC(Cc3ccccc3)C(=O)NC3CCCCC3)ccc21 (centres undefined) | – | inconclusive: 2.44% |
| O=c1[nH]c(C2CCCN(S(=O)(=O)c3ccccc3)C2)nc2c1nnn2Cc1ccc2c(c1)OCCO2 (centres undefined) | – | inconclusive: 259% |
| Cc1ccc(NS(=O)(=O)c2ccc3c(c2)NC(=O)CO3)c(C)c1 | – | inactive |
| CCOc1ccc(CC(=O)N2CCC3(CC2)NCCc2[nH]cnc23)cc1 | – | inconclusive: -18% |
| CCOC(=O)C(NC(=O)CC)(Nc1ccc(S(=O)(=O)Nc2cc(C)on2)cc1)C(F)(F)F (centres undefined) | – | inconclusive: -4.22% |
| O=C(NCCSc1c[nH]c2ccccc12)c1ccco1 | inconclusive: 23.1 µM [falling, single point] | – |
| CCN(CC)S(=O)(=O)c1ccc(/C(O)=C(\C#N)c2nc3ccccc3n2C)cc1 | inconclusive: 29.1 µM [rising, single point] | – |
| Cc1ccc(-n2cc3c(-c4cccc(Br)c4)nnc(C)c3n2)cc1 | – | inconclusive: 12.7% |
| Cc1nn(-c2ccccc2)c2c1C(O)n1c(nc3ccccc31)S2 (centres undefined) | inconclusive: 29.1 µM [cytotoxic, single point] | – |
| CCOc1cc(/C=N/NC(=O)c2ccncc2)ccc1OC(=O)c1ccccc1 | active: 12.6 µM | – |
| COC(=O)c1cc(C#N)c(N2CCN(C)CC2)nc1C | – | inconclusive: 0.36% |
| c1ccc(C(c2ccccc2)c2ccn[nH]2)cc1 | inconclusive: 13 µM [falling, partial curve, poor fit] | – |
| O=C1Nc2ccccc2C(O)(C(=O)NCc2ccc3c(c2)OCO3)N1c1ccccc1 (centres undefined) | inconclusive: 29.1 µM [activator, single point] | – |
| C=CCOc1ccccc1C1C2=C(CC(C)(C)CC2=O)Nc2c1c(=O)n(C)c(=O)n2C (centres undefined) | – | inconclusive: -12.1% |
| O=Cc1ccc(C(=O)OCC(=O)N2CCCC2)cc1 | inconclusive: 29.1 µM [falling, single point] | – |
| O=C(Nc1nnc(SCc2ccc(Cl)cc2)s1)C1CC(=O)N(Cc2ccccc2)C1 (centres undefined) | – | inconclusive: -15.3% |
| Cc1oc(-c2ccc(Cl)cc2)nc1CN1CCC(C(=O)N2CCN(Cc3ccccc3)CC2)CC1 | inconclusive: 0.13 µM [activator, full curve, poor fit] | – |

Entries of single compounds from above.
`COC(=O)c1cc(C(=O)Nc2nc3ccccc3[nH]2)cc([N+](=O)[O-])c1` in the list: lipid storage change, negative = inhibition: inconclusive: -74.3%
`CC1CN(C(c2ccco2)c2sc3ncnn3c2O)CC(C)O1` (centres undefined) in the list: lipid storage change, negative = inhibition: inconclusive: -37%
`Nc1c(C=C2C=CC(=O)C=C2)c(=O)nc2sc(CC(=O)N3CCOCC3)nn12` in the list: Potency: inconclusive: 23.1 µM [activator, single point]
